In PubChem BioAssay AID1508600 (Functional Genomics Laboratory (NCATS/FGL), 2020):
The campaign covered roughly 53,000 sequences. About 3,700 (7%) were called active.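 How the source made its calls: active means gene knockdowns whose robust z-score for IL-1 alpha signal is at least 2 or at most -2, so actives lie on both sides; inactive means the rest.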 The list shows a part of the results.

assay: Components of the Cytosolic LPS Sensing Pathway: Gene Identification via Genome-wide siRNA Screen; details: RAW264.7 macrophages, IL-1a HTRF, actives lie on both sides, screened at 100 nM (by protocol), cells primed 5 h with Pam3CSK4 first;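 further: robust z of the log signal after scaling to non-targeting control siRNA wells of the plate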
How it was run: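 Supernatant IL-1a by HTRF from RAW264.7 cells primed with Pam3CSK4 (5 hours) and transfected with LipidA (24 hour) after 48h siRNA knockdown at 100 nM; cell viability checked with CellTiter-Glo.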

Sequence | z-score
GCCUGCAUUCCAUAACACUTT against Prom1 | inactive: 0.192
GGGAGACGCAAAGCCUUAUTT against Olfr1238 | inactive: 0.644
GCGACUGUUUCUAUCCCAATT against Rnaseh2c | inactive: -0.208
GGAUGCCAAUUUGGCUAAGTT against Hoatz | inactive: 1.7
GGAGUCUUGCUCUAUAUAATT against Arpc5 | inactive: 1.26
GGCGGAGAAGGAGAUUUUATT against Cldn10 | inactive: 0.424
GGAAAUGCCACAGCUGUACTT against Foxn4 | inactive: -0.0146
CCGGACAAGUCGUUUUUUATT against Nuf2 | inactive: -1.91
GGUUUUUGUGUGGAUCUAUTT against Sec62 | inactive: 0.775
GGAGGAUUCCCUUGUUCAATT against Rhbdd2 | inactive: 1.46
GGAGACCAGUACCCUCUGATT against Cmklr1 | inactive: -0.422
GGAUAGAUUUUAGGUAUUGTT against Htr5b | inactive: -0.475
GGACUUCCACCGAAAGUUUTT against Rasd1 | inactive: -0.0323
GGAUUAUGUGAAAACUCUGTT against Sgpl1 | inactive: 1.71
GCAUCUUCGAGGUUUCAAATT against Ccdc136 | inactive: -0.514
GGCUAUAGGUUUCUGGGAATT against Fzd6 | active: 4.94
GACCUUCCUGUCUGAGAUCTT against Ssbp4 | inactive: 1.1
CCACAUUGUUUGGUAACCUTT against Olfr1489 | inactive: -0.631
GGGUUUCACUUUCAGUGGGTT against Nol9 | inactive: 0.498
GGAGUUCAACGAGAUCUGUTT against Hus1b | inactive: 0.315
CCAGAAAACUCAGUUUGAATT against Magi3 | inactive: 0.518
GGAUGUCAGAAAACAGUGCTT against Cd302 | inactive: 0.918
GGCAAGGAUUUUUCUACCUTT against Tslp | inactive: -0.555
UUUUGCACAGACCAGGGAGTT against Aspscr1 | inactive: -0.261
GGUUUAUCCAGGAAGUAUATT against Ptch1 | inactive: -0.0749
GGCUGAAGAUCACCAAGAATT against Neurl1a | inactive: -0.869
GAAAAGAGGAUUCCUUGCATT against Olfr1128 | inactive: 0.726

Sequence | z-score
GGGUGAAUAAAUAAAGCUGTT against Cenps | inactive: -0.33
GCGCAGAAGAGGCUAUUAUTT against Asprv1 | inactive: -0.125
GGAUGAAAGAAAAGAAACUTT against Hoxd11 | inactive: -0.335
GGACAGUGUAGUCAAAAAATT against Cx3cr1 | inactive: 0.149
CCAUACCAUCUUUGAAACATT against Rpl21 | inactive: -0.389
GGAUCAAAUAACAAUGACATT against Hfm1 | inactive: -0.567
GAUGGUUGUAGACUUCUUATT against Olfr1216 | inactive: 0.136
CCCAUUCAAGCACUUAUGGTT against Emc4 | inactive: 0.736
CGACAGAGUGAAAAUUAAGTT against Setd3 | inactive: -0.937
GGCGCAAUGUCAAUGUGAATT against Gzmb | inactive: 0.215
CGCAUUAAGGGUUAAAGAATT against Plekhf1 | inactive: -0.225
UAACCAAGAGGGUAAAAAUTT against Adam26b | inactive: -0.201
CCUAUGAUUCAGCAAUACUTT against Col17a1 | inactive: 0.677
CCAUGCCGCUUCUUAGUCATT against Oaz1 | inactive: -1.29
CCACCAAAGCAGCAGCCAATT against Polr2k | inactive: -1.57
CGUCUUCCCUGUUUACUUATT against Susd2 | inactive: -0.283
CCCAGUGCAUCGAAAAGCUTT against Kif21a | inactive: -1.14
GGACAGUAAUAUGAUGAGCTT against Lzts1 | inactive: -0.943
GGUUCAGAAGGAAGUUUUGTT against Jmy | inactive: 1.91
GCCUACAUUCAACAAACGCTT against Gcnt2 | inactive: 0.445
GGGCAUCAUAGACUGCGUGTT against Slc25a5 | inactive: -1.42
GGAAUGUCAAUCUUGAGAGTT against Asprv1 | inactive: -0.812
GGAGGGAGCAGAUUGAAACTT against Eri2 | inactive: -0.281
GGGUCGAAGGUCAGAACAATT against Ptprh | inactive: 1.63
GCUUGUUCACCCAGUUAUGTT against Hexdc | inactive: 1.15
GGUGAGCCUGGAAAAUUAUTT against Tspan6 | inactive: -0.623

4 records picked at random from those above, as already listed:
Sequence | z-score
GGUGAGCCUGGAAAAUUAUTT against Tspan6 | inactive: -0.623
GAUGGUUGUAGACUUCUUATT against Olfr1216 | inactive: 0.136
GGGUCGAAGGUCAGAACAATT against Ptprh | inactive: 1.63
GGCGCAAUGUCAAUGUGAATT against Gzmb | inactive: 0.215
